Test results from publication PMC10460844, “Real‐Time Monitoring of Multitarget Antimicrobial Mechanisms of Peptoids Using Label‐Free Imaging with Optical Diffraction Tomography” (Advanced Science, 2023).
Structures can show the parent of a compound that is named as a salt. Square brackets hold non-standard residues; d marks the D form. Peptide text beside a SMILES is read from it. Gly(N(CH2)2(3-indolyl)) = O=C(O)CNCCc1c[nH]c2ccccc12; Nspe = C[C@H](NCC(=O)O)c1ccccc1; Nlys = NCCCCNCC(=O)O

Tested on: rat erythrocytes
Assay: Hemolysis assay
Format: cell-based
Method: The hemolysis assay was performed using rat erythrocytes in phosphate‐buffered saline (PBS), as reported by Mendes et al.^[ [45] ^] Animal studies were approved by the Laboratory Animal Resource Center of Gwangju Institute of Science and Technology. Blood was collected from a 13‐week‐old male Sprague‐Dawley rat in tubes containing 158 USP units of sodium heparin to prevent coagulation and centrifuged at 1000 rpm for 10 min at 4 °C. Plasma was removed carefully and erythrocyte pellets were washed three times with PBS (35 mM phosphate, pH 7.4, 150 mM NaCl). Next, 150 µL of a 10% erythrocyte suspension was mixed with 50 µL of serially diluted peptoids (0–100 µM) in a 96‐well black polypropylene plates (Greiner, Kremsmünster, Austria). Untreated erythrocytes and cells lysed by the addition of 1% Triton X‐100 were used as negative and positive controls, respectively, with the 1% Triton X‐100‐treated wells being accepted to represent 100% hemolysis. The reaction mixture was incubated at 37 °C for 60 min, and the plates were centrifuged at 1000 rpm for 15 min. Aliquots (150 µL) of the supernatant were transferred to fresh 96‐well plates, and the absorbance of each well was measured at 540 nm using a microplate reader. Hemolysis induced by peptoids was calculated as the percentage value of Triton X‐100 lysed cells. The percentage of hemolysis by the extracts was calculated according to the following formula: % hemolysis = [(Abs 540 nm in the peptoid solution – Abs 540 nm in PBS) / (Abs 540 nm in 1% Triton X‐100 – Abs 540 nm in PBS)] × 100. HC10 and HC50 were defined as the peptoid concentrations that caused 10% and 50% hemolysis in rat erythrocytes, respectively. H max indicates the percentage of hemolysis observed at the maximum peptoid concentration, 100 µM throughout this study.

[1] = Table S3, HC10 divided by MIC in E. coli ATCC 25922
[2] = HC10 divided by MIC against E. coli ATCC 25922

Structure (SMILES)	selectivity index [1]	selectivity index [2]	selectivity index (Table S2, HC10 divided by MIC in E. coli ATCC 25922)
C[C@@H](c1ccccc1)N(CC(N)=O)C(=O)CN(C(=O)CN(CCCCN)C(=O)CN(C(=O)CN(C(=O)CN(CCCCN)C(=O)CN(C(=O)CN(C(=O)CN(CCCCN)C(=O)CN(C(=O)CN(C(=O)CNCCCCN)[C@@H](C)c1ccccc1)[C@@H](C)c1ccccc1)[C@@H](C)c1ccccc1)[C@@H](C)c1ccccc1)[C@@H](C)c1ccccc1)[C@@H](C)c1ccccc1)[C@@H](C)c1ccccc1 [1-AcOH] (H-[Nlys][Nspe][Nspe][Nlys][Nspe][Nspe][Nlys][Nspe][Nspe][Nlys][Nspe][Nspe]-NH2)	2.0		
C[C@@H](c1ccccc1)N(CC(N)=O)C(=O)CN(C(=O)CN(CCCCN)C(=O)CN(C(=O)CN(C(=O)CN(CCCCN)C(=O)CN(C(=O)CN(C(=O)CN(CCCCN)C(=O)CN(C(=O)CN(C(=O)CNCCCCN)[C@@H](C)c1ccccc1)[C@@H](C)c1ccccc1)[C@@H](C)c1ccccc1)[C@@H](C)c1ccccc1)[C@@H](C)c1ccccc1)[C@@H](C)c1ccccc1)[C@@H](C)c1ccccc1 [1-HCl] (H-[Nlys][Nspe][Nspe][Nlys][Nspe][Nspe][Nlys][Nspe][Nspe][Nlys][Nspe][Nspe]-NH2)	4.4		
C[C@@H](c1ccccc1)N(CC(N)=O)C(=O)CN(C(=O)CN(CCCCN)C(=O)CN(C(=O)CN(C(=O)CN(CCCCN)C(=O)CN(C(=O)CN(C(=O)CN(CCCCN)C(=O)CN(C(=O)CN(C(=O)CNCCCCN)[C@@H](C)c1ccccc1)[C@@H](C)c1ccccc1)[C@@H](C)c1ccccc1)[C@@H](C)c1ccccc1)[C@@H](C)c1ccccc1)[C@@H](C)c1ccccc1)[C@@H](C)c1ccccc1 [peptoid 1, reference compound] (H-[Nlys][Nspe][Nspe][Nlys][Nspe][Nspe][Nlys][Nspe][Nspe][Nlys][Nspe][Nspe]-NH2)	2.5	1.3	
C[C@@H](c1ccccc1)N(CC(=O)N(CCCCN)CC(=O)N(CCc1c[nH]c2ccccc12)CC(=O)N(CCc1c[nH]c2ccccc12)CC(N)=O)C(=O)CN(CCCCN)C(=O)CN(CCCCN)C(=O)CN(C(=O)CN(C(=O)CN(CCCCN)C(=O)CN(C(=O)CN(C(=O)CNCCCCN)[C@@H](C)c1ccccc1)[C@@H](C)c1ccccc1)[C@@H](C)c1ccccc1)[C@@H](C)c1ccccc1 [peptoid 29] (H-[Nlys][Nspe][Nspe][Nlys][Nspe][Nspe][Nlys][Nlys][Nspe][Nlys][Gly(N(CH2)2(3-indolyl))][Gly(N(CH2)2(3-indolyl))]-NH2)	14.1	>15.9	
C[C@@H](c1ccccc1)N(CC(N)=O)C(=O)CN(CCCCN)C(=O)CN(C(=O)CN(C(=O)CN(CCCCN)C(=O)CN(C(=O)CN(C(=O)CN(CCCCN)C(=O)CN(C(=O)CN(CCCCN)C(=O)CN(CCCCN)C(=O)CN(C(=O)CNCCc1c[nH]c2ccccc12)[C@@H](C)c1ccccc1)[C@@H](C)c1ccccc1)[C@@H](C)c1ccccc1)[C@@H](C)c1ccccc1)[C@@H](C)c1ccccc1)[C@@H](C)c1ccccc1 [peptoid 64]			5.7
